# Results from patent US5418219A, “Pharmaceutical composition for treatment of adult respiratory distress syndrome containing human ANP” (Suntory Limited, priority 1992, dated 1995).
# Test system: pigs in which lung injury was induced
# Test: Urine excretion in pigs with HCl-induced pulmonary injury
# Details: pig
smiles,measurement,setting,value
NS(=O)(=O)c1cc(C(=O)O)c(NCc2ccco2)cc1Cl [furosemide],rate of urine excretion,30-60 min after HCl aspiration (before drug administration),1.08 ± 0.24 mL/h/kg
same,rate of urine excretion,30-60 min after the end of administration (150-180 min after HCl aspiration),1.62 ± 0.54 mL/h/kg
same,rate of urine excretion,"first 30 min of administration (60-90 min after HCl aspiration), ANP 0.1 μg/kg/min i.v., furosemide 0.05 mg/kg i.v.",6.6 ± 3.12 mL/h/kg
